No constants are given. Whether binding was seen depends on the method and setting. In cells and extracts the contact can be indirect. A result given as binding can be weak or reduced; the word gives no strength.

Protein sequences, listed by entry. Tags and fused reporters are not part of them. Lines headed by an entry give the natural chain unless they say otherwise; changes in a name come on top.
UniProt Q62634: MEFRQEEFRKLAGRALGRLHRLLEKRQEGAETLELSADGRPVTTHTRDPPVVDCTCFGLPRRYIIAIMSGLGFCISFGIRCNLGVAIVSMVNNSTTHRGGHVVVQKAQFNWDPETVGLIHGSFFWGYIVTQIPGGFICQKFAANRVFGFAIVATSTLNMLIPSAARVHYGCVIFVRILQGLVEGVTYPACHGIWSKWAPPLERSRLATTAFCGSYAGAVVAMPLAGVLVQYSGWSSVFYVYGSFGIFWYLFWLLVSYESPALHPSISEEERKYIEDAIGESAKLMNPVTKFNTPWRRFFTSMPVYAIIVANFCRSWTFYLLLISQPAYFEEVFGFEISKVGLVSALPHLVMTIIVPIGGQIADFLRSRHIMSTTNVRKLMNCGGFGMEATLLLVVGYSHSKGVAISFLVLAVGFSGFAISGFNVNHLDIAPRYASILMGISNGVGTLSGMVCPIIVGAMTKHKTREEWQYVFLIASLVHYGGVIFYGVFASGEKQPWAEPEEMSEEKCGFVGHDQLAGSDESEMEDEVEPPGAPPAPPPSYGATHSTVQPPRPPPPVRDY
UniProt P25911: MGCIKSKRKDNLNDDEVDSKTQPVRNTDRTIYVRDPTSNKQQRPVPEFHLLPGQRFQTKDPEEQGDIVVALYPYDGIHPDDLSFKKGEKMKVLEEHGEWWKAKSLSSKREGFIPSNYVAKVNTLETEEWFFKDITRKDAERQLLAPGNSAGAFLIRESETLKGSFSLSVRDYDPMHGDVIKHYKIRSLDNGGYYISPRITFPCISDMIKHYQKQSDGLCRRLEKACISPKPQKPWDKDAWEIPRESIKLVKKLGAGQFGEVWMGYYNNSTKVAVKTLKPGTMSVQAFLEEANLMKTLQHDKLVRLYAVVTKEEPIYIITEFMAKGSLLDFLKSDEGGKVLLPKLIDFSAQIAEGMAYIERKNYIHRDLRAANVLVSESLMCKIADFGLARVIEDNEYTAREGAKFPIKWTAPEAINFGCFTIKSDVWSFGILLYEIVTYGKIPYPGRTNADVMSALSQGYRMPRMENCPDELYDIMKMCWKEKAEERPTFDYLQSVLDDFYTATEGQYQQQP
UniProt O35180: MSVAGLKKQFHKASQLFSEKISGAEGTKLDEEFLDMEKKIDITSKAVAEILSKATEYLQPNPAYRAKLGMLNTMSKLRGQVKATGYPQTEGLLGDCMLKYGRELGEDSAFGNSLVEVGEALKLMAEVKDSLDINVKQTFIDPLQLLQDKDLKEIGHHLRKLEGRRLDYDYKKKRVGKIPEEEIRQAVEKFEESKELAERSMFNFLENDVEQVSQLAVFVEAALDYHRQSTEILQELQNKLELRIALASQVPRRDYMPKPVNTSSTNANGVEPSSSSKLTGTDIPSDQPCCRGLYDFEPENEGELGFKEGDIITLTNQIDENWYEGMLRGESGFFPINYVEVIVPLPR
UniProt O35179: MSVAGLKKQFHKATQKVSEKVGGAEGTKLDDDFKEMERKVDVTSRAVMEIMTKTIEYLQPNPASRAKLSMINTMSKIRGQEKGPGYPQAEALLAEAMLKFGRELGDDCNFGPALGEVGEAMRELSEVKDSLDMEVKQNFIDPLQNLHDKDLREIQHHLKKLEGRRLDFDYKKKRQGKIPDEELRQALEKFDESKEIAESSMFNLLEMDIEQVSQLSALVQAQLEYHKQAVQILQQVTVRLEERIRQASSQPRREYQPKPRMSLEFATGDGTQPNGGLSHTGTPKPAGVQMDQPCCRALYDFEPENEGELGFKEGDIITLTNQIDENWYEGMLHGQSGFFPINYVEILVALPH
UniProt Q62940: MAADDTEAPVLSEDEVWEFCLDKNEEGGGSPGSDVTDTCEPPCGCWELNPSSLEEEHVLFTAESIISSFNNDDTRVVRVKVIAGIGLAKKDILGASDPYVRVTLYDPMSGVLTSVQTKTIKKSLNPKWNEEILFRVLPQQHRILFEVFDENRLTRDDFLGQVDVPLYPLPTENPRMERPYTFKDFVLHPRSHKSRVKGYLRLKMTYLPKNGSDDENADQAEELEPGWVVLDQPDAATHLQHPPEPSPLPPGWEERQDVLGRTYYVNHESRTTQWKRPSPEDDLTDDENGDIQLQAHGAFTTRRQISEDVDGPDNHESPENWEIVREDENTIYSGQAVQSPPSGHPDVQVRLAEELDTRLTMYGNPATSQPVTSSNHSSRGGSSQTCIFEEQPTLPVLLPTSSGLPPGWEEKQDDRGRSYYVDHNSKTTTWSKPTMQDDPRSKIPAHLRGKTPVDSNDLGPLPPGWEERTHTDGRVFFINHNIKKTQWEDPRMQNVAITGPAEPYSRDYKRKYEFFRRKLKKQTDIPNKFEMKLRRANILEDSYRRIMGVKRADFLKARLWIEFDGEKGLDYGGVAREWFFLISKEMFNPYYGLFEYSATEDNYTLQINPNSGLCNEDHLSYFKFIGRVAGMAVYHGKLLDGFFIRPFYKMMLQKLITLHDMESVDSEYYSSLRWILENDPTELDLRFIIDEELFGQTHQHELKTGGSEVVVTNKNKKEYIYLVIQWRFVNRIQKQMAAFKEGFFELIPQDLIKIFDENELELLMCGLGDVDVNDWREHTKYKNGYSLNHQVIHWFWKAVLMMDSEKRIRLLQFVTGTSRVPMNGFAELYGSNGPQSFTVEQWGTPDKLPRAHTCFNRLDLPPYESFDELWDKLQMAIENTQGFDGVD

Assay [1] deals with GST fusion of the entire C-terminal cytoplasmic tail of VGLUT1 (rat) (UniProt Q62634). The assay can be described thus: pull-down; GST fusions of the VGLUT1 C-terminus on glutathione sepharose beads, incubated with extracts of COS7 cells transfected with myc-Lyn (2% TX-100); detected with antibody to myc, band intensity normalised to VG1; only the target purified.
Assay [2] has the same target. The assay can be described thus: pull-down; 400 µg GST fusions of the VGLUT1 C-terminus on glutathione sepharose beads, rat brain extract in 100 mM Tris-HCl pH 7.5, 150 mM NaCl, 1 mM EGTA, 1% TX-100, 4°C 2 h; immunoblot (Fig. 6); only the target purified.
Assay [3] shares this target. Nature of the assay: pull-down; GST fusions of the VGLUT1 C-terminus on glutathione sepharose beads, incubated with detergent-solubilized (2% TX-100) rat brain extract, RT 60 min; bound proteins by immunoblot, band intensity normalised to VG1 (Figs. 3C,D and 4B); only the target purified. For orientation: A western blot detects proteins with antibodies after separation by electrophoresis.

On to “myc-tagged Lyn (from UniProt P25911 1-512) (enzyme)”, for which, in assay [1], the binding result is reported as “binds”.

Regarding “endophilin 3 from rat brain extract (from UniProt O35180 1-347)”, the binding entry in assay [2] is “binds”.

As to “endophilin 1 from rat brain extract (from UniProt O35179 1-352)”, the binding result in assay [2] is reported as “binds”.

As for “Nedd4 from rat brain extract (from UniProt Q62940 1-887) (enzyme)”, the binding entry in assay [3] and in assay [2] was “binds” each time.

These data come from article PMC4198130.
